In patent publication US20060041123A1, “Antibacterial agents” (priority 2002, published 2006):
Some entries share one result that the patent states for a list of compounds. At least one structure is not confirmed: it was looked up by name or label, or the drawing left a doubt.

System: Staphylococcus aureus WCUH29, Streptococcus pneumoniae 1629, Streptococcus pyogenes CN 10, Enterococcus faecalis 2, Haemophilus influenzae NEMC1, E. coli 7623 …
Experiment: Antimicrobial activity assay: whole-cell MIC by broth microdilution (NCCLS M7-A6)
Format: cell-based
Conditions: versus all the organisms named above (S. aureus WCUH29, S. pneumoniae 1629, S. pyogenes CN 10, E. faecalis 2, H. influenzae NEMC1, E. coli 7623, M. catarrhalis Ravasio)
Description: Whole-cell antimicrobial activity was determined by broth microdilution using the National Committee for Clinical Laboratory Standards (NCCLS) recommended procedure, Document M7-A6, “Methods for Dilution Susceptibility Tests for Bacteria that Grow Aerobically”. The compounds were tested in serial two-fold dilutions ranging from 0.016 to 16 mcg/mL. Compounds were evaluated against a panel of Gram-positive organisms, including Staphylococcus aureus WCUH29, Streptococcus pneumoniae 1629, Streptococcus pyogenes CN 10, and Enterococcus faecalis 2. In addition, compounds were evaluated against a panel of Gram-negative strains including Haemophilus influenzae NEMC1, E. coli 7623, and Moraxella catarrhalis Ravasio. The minimum inhibitory concentration (MIC) was determined as the lowest concentration of compound that inhibited visible growth. A mirror reader was used to assist in determining the MIC endpoint.
Compounds of the present invention have MIC's ≦20 μg/ml versus all the organisms named above.

Compound | MIC
COc1cc(F)c2ncc(F)c(CCN3CC[C@H](NCc4cc5c(cn4)OCCO5)[C@H](F)C3)c2c1.Cl.Cl (single isomer, unassigned; enantiomer1) [Example 143, cis-1-{2-[3,8-difluoro-(methoxy)-4-quinolinyl]ethyl}-N-(2,3-dihydro[1,4]dioxino[2,3-c]pyridin-7-ylmethyl)-3-fluoro-4-piperidinamine dihydrochloride Enantiomer1] | ≤ 2 µg/mL
COc1ccc2ncc(Cl)c(CCN3CCC(NCc4ccc5c(n4)NC(=O)CO5)CC3)c2n1.Cl.Cl [Example 16, 6-({1-[2-(3-chloro-6-methoxynaphthyridin-4-yl)ethyl]piperidin-4-ylamino}methyl)-4H-pyrido[3,2-b][1,4]oxazin-3-one Dihydrochloride] | ≤ 2 µg/mL
6-{[(1-{2-[3,8-difluoro-6-(methoxy)-4-quinolinyl]ethyl}-4-piperidinyl)amino]methyl}-2H-pyrido[a,2-b][1,4]thiazin-3(4H)-one dihydrochloride [Example 50] | ≤ 2 µg/mL
6-{[(1-(2-[3,8-Difluoro-6-(methoxy)-4-quinolinyl]ethyl}-4-piperidinyl)amino]methyl}-2H-pyrido[3,2-b][1,4]oxazin-3(4H)-one dinydrochloride [Example 49] | ≤ 2 µg/mL
COc1cc(F)c2ncc(F)c(C(O)CN3CCC(NCc4cc5c(cn4)OCCO5)CC3)c2c1.Cl.Cl (single isomer, unassigned; enantiomer e2) [Example 187, 1-[3,8-difluoro-6-(methoxy)-4-quinolinyl]-2-(4[(2,3-dihydro[1,4]dioxino[2,3-c]pyridin-7-ylmethyl)amino]-1-piperidinyl}ethanol dihydrochloride Enantiomer E2] | ≤ 2 µg/mL
COc1ccc2ncc(Cl)c(CCN3CCC(NCc4ccc5c(n4)NC(=O)CS5)CC3)c2n1.Cl.Cl [Example 15, 6-({1-[2-(3-Chloro-6-methoxynaphthyridin-4-yl)ethyl]piperidin-4-ylamino}methyl)-4H-pyrido[3,2-b][1,4]thiazin-3-one Dihydrochloride] | ≤ 2 µg/mL
COc1ccc2ncc(Cl)c(CCN3CC[C@@H](NCc4ccc5c(n4)NC(=O)CS5)[C@H](O)C3)c2c1.Cl.Cl.Cl (single isomer, unassigned; enantiomer 1) [Example 19, 6-(trans)-1-[2-(3-Chloro-6-methoxyquinolin-4-yl)ethyl]3-hydroxypiperidin-4-yl amino}methyl)-4H-pyrido[3,2-b][1,4]thiazin-3-one Trihydrochloride enantiomer 1] | ≤ 2 µg/mL
COc1ccc2ncc(F)c(CCN3CCC(NCc4ccc5c(n4)NC(=O)CO5)CC3)c2c1.Cl.Cl [Example 43] | ≤ 2 µg/mL
6-({1-[2-(3-Chloro-6-methoxy-[1,5]naphthyridin-4-yl)-2-hydroxy-ethyl]-piperidin-4-ylamino}-methyl)-4H-pyrido[3,2-b][1,4]thiazin-3-one Dihydrochloride Enantiomer 1 [Example 36] | ≤ 2 µg/mL
Cl.Cl.O[C@H]1CN(CCc2c(Cl)cnc3ccc(F)cc23)CC[C@H]1NCc1cc2c(cn1)OCCO2 (single isomer, unassigned; enantiomer e2) [Example 164] | ≤ 2 µg/mL
COc1ccc2ncc(F)c(CCN3CCC(NCc4cc5c(cn4)OCCO5)CC3)c2n1.Cl.Cl [Example 53, (2,3-dihydro[1,4]dioxino[2,3-c]pyridin-7-ylmethyl)-1-{2-[3-fluoro-6-(methoxy)-1,5-naphthyridin-4-yl]ethyl}-4-piperidinamine dihydrochloride] | ≤ 2 µg/mL
trans-N-((3R,4R)-1-{2-[3-fluoro-6-(methoxy)-1,5-naphthyridin-4-yl]ethyl}-3-hydroxy-4-piperidinyl)-3-oxo-3,4-dihydro-2H-pyrido[3,2-b][1,4]oxazine-6-carboxamide Isomer E1 hydrochloride [Example 135] | ≤ 2 µg/mL
6-{[(1-{2-[3-chloro-6-fluoro-5-(methoxy)-4-quinolinyl]-1-methylethyl}-4-piperidinyl)amino]methyl}-2H-pyrido[3,2-b][1,4]oxazin-3(4H)-one dihydrochloride [Example 109] | ≤ 2 µg/mL
COc1ccc2ncc(F)c(CCN3CC[C@H](NCc4cc5c(cn4)OCS5)[C@H](O)C3)c2n1.Cl.Cl (single isomer, unassigned; enantiomer e1) [Example 159] | ≤ 2 µg/mL
COc1cc(F)c2ncc(F)c(CCN3CC[C@@H](NCc4cc5c(cn4)OCCO5)[C@@H](O)C3)c2c1.Cl.Cl (single isomer, unassigned; enantiomer e2) [Example 176] | ≤ 2 µg/mL
Cl.Cl.O[C@H]1CN(CCc2c(Cl)cnc3ccc(Cl)cc23)CC[C@H]1NCc1cc2c(cn1)OCCO2 (single isomer, unassigned; enantiomer e2) [Example 162] | ≤ 2 µg/mL
6-({1-[2-(3-Chloro-6-methoxy-[1,5]naphthyridin-4-yl)-2-hydroxy-ethyl]-piperidin-4-ylamino}-methyl)-4H-pyrido[3,2-b][1,4]thiazin-3-one Dihydrochloride Enantiomer 2 [Example 37] | ≤ 2 µg/mL
Trans-4-[(2,3-dihydro[1,4]dioxino[2,3-c]pyridin-7-ylmethyl)amino]-1-{2-[3-fluoro-6-(methoxy)-1,5-naphthyridin-4-yl]ethyl}-4-methyl-3-piperidinol dihydrochloride [Example 123] | ≤ 2 µg/mL
Cl.Cl.Clc1ccc2ncc(Cl)c(CCN3CCC(NCc4cc5c(cn4)OCCO5)CC3)c2c1 [Example 28] | ≤ 2 µg/mL
